Reference: PubChem BioAssay AID651804 (National Center for Advancing Translational Sciences (NCATS), 2012)
Among all 1,200 compounds or so, about 20 (2%) were called active. Not shown: some 23% with an inconclusive outcome. Calls come from the whole dose curve; as a rule, active = well fitted inhibition curve with a large enough effect; inconclusive = small, poorly fitted or top-dose-only effect; inactive = no such curve, though single readings can be large or run the other way. The list shows a part of the results.

Protein sequences, listed by entry. Tags and fused reporters are not part of them. Lines headed by an entry give the natural chain unless they say otherwise; changes in a name come on top.
UniProt P11308: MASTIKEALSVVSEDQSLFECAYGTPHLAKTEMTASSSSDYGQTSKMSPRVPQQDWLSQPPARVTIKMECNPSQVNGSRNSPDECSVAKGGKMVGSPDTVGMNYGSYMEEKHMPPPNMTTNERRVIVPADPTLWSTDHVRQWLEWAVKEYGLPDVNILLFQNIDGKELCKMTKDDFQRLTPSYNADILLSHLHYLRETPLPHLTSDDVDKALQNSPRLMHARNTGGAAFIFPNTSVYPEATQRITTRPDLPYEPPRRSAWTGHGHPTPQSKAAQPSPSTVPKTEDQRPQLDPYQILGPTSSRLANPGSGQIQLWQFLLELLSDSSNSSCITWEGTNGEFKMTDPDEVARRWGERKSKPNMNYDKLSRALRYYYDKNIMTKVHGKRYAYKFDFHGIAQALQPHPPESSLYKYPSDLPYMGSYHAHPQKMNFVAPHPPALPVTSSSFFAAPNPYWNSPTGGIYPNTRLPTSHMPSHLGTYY

biological target: Transcriptional regulator ERG (Homo sapiens) (UniProt P11308); test: qHTS for Small Molecule Inhibitors of the ERG Ets/DNA interaction: HTRF assay against cherry picks; details: His-ERG Ets domain with biotin-DNA; series mostly up to 154 µM; activity change, negative = inhibition: at the top concentration
Method in brief: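 Compounds were incubated 10 min at RT with ERG Ets domain and biotinylated DNA (each added as 200 nM solution) in pH 7.5 Tris/KCl/EDTA/DTT buffer. Binding was read as FRET (ex 320, em 615 and 665 nm) between anti-His donor and streptavidin acceptor.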

Activity change, negative = inhibition, inactive:
CN(C)CCCNc1c2ccccc2nc2ccccc12 -88.9%
Cc1ccc(S(=O)(=O)N2[C@@H](c3ccccc3F)C(C(=O)O)=CC[C@H]2c2cccs2)cc1 -24.2%
COc1cccc(CN2CCNC(=O)C2CC(=O)N(Cc2cnn(C)c2)C(C)C)c1 (stereo unspecified) -30.2%
O=C(C[C@H]1C/C=C\CC[C@@H](Cc2ccc(F)cc2)C(=O)OC[C@H]2CCCN2C1=O)N[C@H](CO)Cc1ccccc1 -13.8%
Nc1ccncc1N 0.849%
CN1C2CCC1CC(NC(=O)CSCc1ccc(Cl)cc1Cl)C2 (stereo unspecified) -29.4%
CCOC(=O)C1(Cc2ccccc2Cl)CCN(S(=O)(=O)N(C)C)CC1 3.4%
CCNc1nc(OCC)nc(N2CCC(Cc3ccccc3)CC2)n1 4.46%
CCCCN1C(N)=NC[C@@H]1CC1CCCCC1 -20.6%
Cc1ccc(COC(=O)CCN=C2NS(=O)(=O)c3ccccc32)cc1 -23.1%
COc1ccc(C(=O)NCC(=O)N2CCN(C(=O)c3ccco3)CC2)cc1 7.96%
Cc1ccccc1NC(=O)COc1ccc2oc(=O)cc(C)c2c1 -0.371%
CC(C[N+](C)(C)C)OC(N)=O (stereo unspecified) -29.3%
Cc1ccc(C(=O)N2CCN(c3ccc(NC(=O)CSc4ccc(Cl)cc4)cc3)CC2)cc1 -5.62%
Cc1ccc(-c2nnn(CC(=O)N(c3ccccc3)C(C(=O)NCC3CCCO3)c3ccc(F)cc3)n2)o1 (stereo unspecified) -28%
CCOC(=O)N1CCC(NC(=O)c2ccc(CO)c(C(=O)NC3CCN(C(=O)OCC)CC3)c2)CC1 -24.2%
CNC(=S)N/N=C/c1c(C)nn(-c2ccccc2)c1Cl -37.2%
Cc1cc(-c2n[nH]c(=S)n2-c2ccc(C)c(C)c2)no1 -9.55%
Cc1ccc(C)c(NC(=O)COC(=O)c2cc(=O)c3ccccc3o2)c1 -41.9%
CC(=O)NC(CC(=O)Nc1nc(-c2ccccc2)c(C(C)=O)s1)c1ccccc1 (stereo unspecified) -23%
CN(C)S(=O)(=O)c1ccc(C(=O)Nc2ccc(Cl)cc2)cc1 -10.2%
COc1ccc(-c2cc3ncc(C(C)=O)c(C)n3n2)cc1 8.12%
OC(CN1CCCCC1)Cn1c2ccccc2c2cc(Br)ccc21 (stereo unspecified) -1.59%
CCNC(=O)COc1ccc(/C=N/NC(=O)c2cccnc2)cc1OC -34.7%
c1ccc(SSc2ccccc2)cc1 -0.584%
Cn1ncc(Cl)c1C(=O)N1CCN(C23CC4CC(CC(C4)C2)C3)CC1 -11.7%
COc1ccc(C)cc1S(=O)(=O)Nc1cccc(C)c1 -18.3%
CN(C(=O)c1ccncc1)C1CCS(=O)(=O)C1 (stereo unspecified) -23.9%
COc1ccc(-c2nc3n(n2)C(c2ccccc2OC)C(C(=O)Nc2cccnc2)=C(C)N3)cc1 (stereo unspecified) 6.74%
COC(=O)[C@H](Cc1ccccc1)NC(=O)C1(OC(C)=O)CC(OC(C)=O)C(OC(C)=O)C(OC(C)=O)C1 (stereo partly specified) -7.96%
CC1CCN(C(=O)COC(=O)c2ccc(=O)n(Cc3ccccc3)n2)CC1 -13%
CC1=CC(=O)C(C(C)C)=C/C1=C(\c1cc(C(C)C)c(OP(=O)(O)O)cc1C)c1ccccc1C(=O)O -5.84%
COc1ccc(CCC(=O)NNC(=O)c2cc(Cl)ccc2OC)cc1 -18.2%
CN(C)C(CNC(=O)/C=C/c1cccc(Cl)c1)c1ccccc1 (stereo unspecified) -24.2%
Cc1csc(NC(=O)CSc2nnc(NC(=O)COc3ccc(Cl)cc3)s2)n1 -17.3%
O=C(COc1ccccc1Cl)Nc1ccc(CN2CCCCC2)cc1 -18.8%
COc1cccc(-c2nnc(NC(=O)C(C)C)o2)c1 2.65%
Cc1ccccc1C(=O)NCCCc1ccccc1 11.7%
O=C(CNC(=O)c1ccccc1Cl)OCC(=O)N1CCc2ccccc21 4.77%
N/C(=N\c1nc2ccccc2o1)NC(=O)c1cccc(Br)c1 -21.5%
CC(C)N(C(=O)Cn1cc(S(=O)(=O)CC(=O)N2CCOCC2)c2ccccc21)C(C)C -13.7%
COc1cc(NC(=O)CCCNC(=O)c2ccc(Cl)cc2)cc(OC)c1 -28%
Cc1ccc(-n2c(Cc3noc4ccccc34)n[nH]c2=S)cc1 -0.53%
COc1ccc(NC(=O)COC(=O)C2C3CC4OC(=O)C2C4C3)cc1 (stereo unspecified) -30%
Cc1ccc(CNC(=O)Cn2c(=O)n(Cc3ccc(F)cc3)c(=O)c3sc4ccccc4c32)cc1 -27.2%
C=CCn1cccc(C(=O)Nc2cc(OC)c(OC)c(OC)c2)c1=O -36.4%
O=C(NC1CCCCCCC1)c1ccc(F)c(S(=O)(=O)N2CCOCC2)c1 4.03%
CCN1CCN(C(=O)Cn2ncc3ccsc3c2=O)CC1 -10.2%
CC(=O)Nc1cccc(NC(=O)c2ccccc2OCc2c(C)noc2C)c1 -3.18%
Cc1ccc(NC(=O)C2CCN(S(=O)(=O)c3cccc(C(F)(F)F)c3)CC2)nc1 -12.5%
COc1ccc(C2(C(=O)Nc3ccc(OC)cc3OC)CCCC2)cc1 -17.7%
CC(C#N)(NC(=O)CN1CCN(S(=O)(=O)c2ccccc2C#N)CC1)C1CC1 (stereo unspecified) -9.5%
Cc1ccc(-c2noc(C3CCCN(C(=O)c4cccc([N+](=O)[O-])c4)C3)n2)o1 (stereo unspecified) -24.6%
CSC(=NC#N)N1CCN(C(=NC#N)SC)CC1 -23.2%
CSc1ccccc1NC(=O)CN(C)C(=O)/C=C/c1ccccc1 -23.6%
O=C(c1ccc(CS(=O)c2ccccc2Cl)o1)N1CCN(c2ccccn2)CC1 (stereo unspecified) -22.2%
CC(=O)OCC(=O)C1=CCC2C3CCC4=CC(=O)C=CC4(C)C3(F)C(OC(C)=O)CC12C (stereo unspecified) -16.2%
CCN(CC)S(=O)(=O)c1cccc(-c2nc3n(n2)Cc2ccccc2-3)c1 -2.76%
CCOC(=O)N1CCN(C(=O)COC(=O)c2cccc(S(C)(=O)=O)c2)CC1 3.24%
Cc1ccc(CNC(=O)c2sc3nc(-c4ccc(F)cc4)ccc3c2N)cc1 -15.3%
COc1cccc(-n2nc3c(=S)[nH]nc(C)c3c2C)c1 2.71%
Cn1c(SCc2nnc(-c3ccccc3)o2)nc2ccccc21 -17%
CNC(=O)C(=O)NCCN1CCN(C(=O)c2ccc([N+](=O)[O-])cc2)CC1 -38.6%
CCCC(=O)Nc1ccc(C(=O)Nc2nnc(COCC)s2)cc1 -36.2%
O=C(c1ccco1)N(Cc1ccc2c(c1)OCO2)Cc1cc2cc3c(cc2[nH]c1=O)OCO3 -27%
COc1ccc(S(=O)(=O)N2CCCC(C(F)(F)F)C2)cc1 (stereo unspecified) -24%
COC(=O)c1sccc1NC(=O)c1ccccc1Br -20.2%
CC(C)CC(=O)CN1C(=O)C2(OCCO2)c2ccccc21 0.53%
CCN(CC)c1ccc2cc(-c3nc(-c4cc(OC)c(OC)c(OC)c4)no3)c(=O)oc2c1 -19.3%
O=[N+]([O-])c1ncccc1OCc1ccc(-c2ccccc2)cc1 -17.9%
CCOc1ccc(-c2cc(C(=O)OC)[nH]n2)cc1 -23.2%
CCOC(=O)C1=C(C)N(C[C@@H]2CC[C@@H](Cc3ccc(-c4ccccc4)cc3)O2)C(=O)NC1c1ccc([N+](=O)[O-])cc1 (stereo partly specified) -4.88%
CCOC(=O)c1c(-c2ccccc2)csc1NC(=O)c1cc(-c2ccc(C)c(F)c2)on1 -32.9%
Cc1ccc2c(c1)N(CC(=O)NC1CCCc3ccccc31)C(=O)CO2 (stereo unspecified) 4.19%
CCOc1cc(NC(=S)NCC(C)C)c(OCC)cc1NC(=O)c1ccco1 -29%
COc1ccc(CCNC(=O)CSc2n[nH]c(N)n2)cc1 -21.9%
CCOc1ccccc1N1CCN(CC(=O)c2c(N)n(C)c(=O)n(C)c2=O)CC1 -30.2%
CC(=O)C1=C(O)C(=O)N(c2nccs2)C1c1ccccc1 (stereo unspecified) -20.4%
CCOC(=O)c1ccc(NC(=O)c2cn(-c3ccccc3)nc2-c2ccc(OC)c(OC)c2)cc1 8.81%
CC(C)N1CCN(Cc2ccc(Sc3nncn3C)o2)CC1CCO (stereo unspecified) -34.9%
CCOc1ccc(NS(=O)(=O)c2ccc(NC(C)=O)c(OC)c2)cc1 -24.9%
Cn1c(CO)cnc1SCc1ccc(F)cc1 -18%
CCOc1ccccc1NC(=O)COc1ccc2ccc(=O)oc2c1 5.68%
O=C(Nc1cc(-c2nc3cc(Cl)ccc3o2)ccc1Cl)c1cccs1 111%
COCC(=O)NC1CCN(S(=O)(=O)c2cccc(C(C)=O)c2)CC1 -8.17%
CC1CCCCC1NC(=S)Nc1ccc(Cl)cc1Cl (stereo unspecified) -25.8%
COc1ccccc1N(C)S(=O)(=O)c1ccc(C(=O)OCC(=O)N2CCCCCC2)cc1 -24.4%
Cc1nccn1C[C@@H]1CCc2c(c3ccccc3n2C)C1=O -12.8%
Cc1c(C(=O)Cc2ccccc2)n(C)c2ccccc12 -8.75%
N#CC(C(=O)NCc1ccccc1)c1nc2ccccc2nc1N1CCCC1 (stereo unspecified) -25.1%
CCCN(CC(=O)Nc1ccc(OC)c(OC)c1)CC(=O)Nc1ccc(F)c(F)c1F -22.2%
COc1ccc(N(C(=O)c2snc(C(N)=O)c2N)C(C(=O)NCC2CCCO2)c2ccc3ncccc3c2)cc1OC (stereo unspecified) -28.8%
Cc1ccccc1NS(=O)(=O)c1ccc(OCCNS(C)(=O)=O)cc1 -17.3%
CCc1cccc(C)c1NC(=O)CSc1nc(C)c(C)o1 -16.9%
Cc1cc(C)cc(N(C(=O)c2csnn2)C(C(=O)NC(C)(C)C)c2ccncc2)c1 (stereo unspecified) -28.2%
Oc1cncc(Cc2ccccc2)c1 -32.7%
CCN(CC)S(=O)(=O)c1ccc2c(c1)c(=O)c(C(=O)NCCc1ccccc1)cn2C -22.2%
COc1ccc(-c2cc(N)n(S(=O)(=O)Cc3ccccc3)n2)c(OC)c1 -25%
Cc1[nH]cnc1CN1CCc2c(c3ccccc3n2C)C1=O 0.106%
O=C(C1CC(=O)N(c2ccc(Cl)cc2)C1)N1CCCCCC1 (stereo unspecified) 0.955%
CCOC(=O)c1cn2nc(Oc3ccc(NC(C)=O)cc3)ccc2n1 -26.7%
O=C(NNC(=O)c1sccc1-n1cccc1)Nc1ccccc1 -2.86%
Cc1ccc(F)cc1NC(=O)CCc1c(C)[nH]c(=O)c(C#N)c1C -19.1%
Cc1ccc(S(=O)(=O)NNC(=S)NC(=O)c2ccc([N+](=O)[O-])cc2)cc1 -39.4%
Cc1nn2c(=O)c3c4c(sc3nc2n1-c1ccccc1)COC(C)(C)C4 28.1%
CC(=O)c1cccc(NC(=S)N2CCN(S(=O)(=O)c3ccc(F)cc3)CC2)c1 -27.4%

Compounds above with bromine (three):
Activity change, negative = inhibition, inactive:
OC(CN1CCCCC1)Cn1c2ccccc2c2cc(Br)ccc21 (stereo unspecified) -1.59%
N/C(=N\c1nc2ccccc2o1)NC(=O)c1cccc(Br)c1 -21.5%
COC(=O)c1sccc1NC(=O)c1ccccc1Br -20.2%

Reprinted at random: two entries already listed, in no set order.
Activity change, negative = inhibition, inactive:
CN(C)S(=O)(=O)c1ccc(C(=O)Nc2ccc(Cl)cc2)cc1 -10.2%
Cc1ccc(NC(=O)C2CCN(S(=O)(=O)c3cccc(C(F)(F)F)c3)CC2)nc1 -12.5%
